Results are given in words; binding and its absence hold for the method and conditions named. In cells and extracts the contact can be indirect. For some assays here: Tags and fused reporters may be left off the sequences shown.
Experiments:
Assay in all cases: split reporter
[1] = target: T1, ATG13b, BiFC fusion (Arabidopsis) (UniProt F4J8V5)
T1 sequence: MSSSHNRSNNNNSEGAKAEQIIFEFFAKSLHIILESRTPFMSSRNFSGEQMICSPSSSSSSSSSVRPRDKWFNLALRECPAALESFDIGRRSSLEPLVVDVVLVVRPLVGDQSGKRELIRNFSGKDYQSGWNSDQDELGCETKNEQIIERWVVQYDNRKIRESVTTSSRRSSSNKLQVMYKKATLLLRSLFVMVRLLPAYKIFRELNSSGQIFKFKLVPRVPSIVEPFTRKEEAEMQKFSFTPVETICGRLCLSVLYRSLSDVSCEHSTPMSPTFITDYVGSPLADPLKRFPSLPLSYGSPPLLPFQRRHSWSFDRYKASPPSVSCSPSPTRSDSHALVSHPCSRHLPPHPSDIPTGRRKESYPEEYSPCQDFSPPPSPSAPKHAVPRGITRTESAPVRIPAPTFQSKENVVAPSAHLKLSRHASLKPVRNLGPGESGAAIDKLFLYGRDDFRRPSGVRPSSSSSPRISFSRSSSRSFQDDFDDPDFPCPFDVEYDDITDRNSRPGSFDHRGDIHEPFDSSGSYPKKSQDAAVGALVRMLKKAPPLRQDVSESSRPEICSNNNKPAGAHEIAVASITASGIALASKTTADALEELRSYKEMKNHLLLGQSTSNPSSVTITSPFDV

By UniProt entry, the sequences of proteins in these tests, tags left out.
UniProt P25858: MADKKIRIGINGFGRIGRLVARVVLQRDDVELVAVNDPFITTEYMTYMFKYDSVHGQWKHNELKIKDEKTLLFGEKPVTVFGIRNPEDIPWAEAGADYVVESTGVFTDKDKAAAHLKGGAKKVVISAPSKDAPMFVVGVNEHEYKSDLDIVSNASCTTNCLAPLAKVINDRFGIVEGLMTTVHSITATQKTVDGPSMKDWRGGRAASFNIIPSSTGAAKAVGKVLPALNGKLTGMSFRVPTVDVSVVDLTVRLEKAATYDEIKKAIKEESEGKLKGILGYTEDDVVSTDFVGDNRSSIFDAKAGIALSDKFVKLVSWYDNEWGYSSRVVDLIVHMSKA
UniProt P48491: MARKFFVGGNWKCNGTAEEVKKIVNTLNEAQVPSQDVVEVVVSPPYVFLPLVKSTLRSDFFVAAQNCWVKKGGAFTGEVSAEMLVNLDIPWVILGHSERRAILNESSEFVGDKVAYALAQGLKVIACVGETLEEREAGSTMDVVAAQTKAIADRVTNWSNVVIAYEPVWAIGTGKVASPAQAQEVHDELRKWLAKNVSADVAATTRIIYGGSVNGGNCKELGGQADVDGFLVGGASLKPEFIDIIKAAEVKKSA
UniProt Q42525: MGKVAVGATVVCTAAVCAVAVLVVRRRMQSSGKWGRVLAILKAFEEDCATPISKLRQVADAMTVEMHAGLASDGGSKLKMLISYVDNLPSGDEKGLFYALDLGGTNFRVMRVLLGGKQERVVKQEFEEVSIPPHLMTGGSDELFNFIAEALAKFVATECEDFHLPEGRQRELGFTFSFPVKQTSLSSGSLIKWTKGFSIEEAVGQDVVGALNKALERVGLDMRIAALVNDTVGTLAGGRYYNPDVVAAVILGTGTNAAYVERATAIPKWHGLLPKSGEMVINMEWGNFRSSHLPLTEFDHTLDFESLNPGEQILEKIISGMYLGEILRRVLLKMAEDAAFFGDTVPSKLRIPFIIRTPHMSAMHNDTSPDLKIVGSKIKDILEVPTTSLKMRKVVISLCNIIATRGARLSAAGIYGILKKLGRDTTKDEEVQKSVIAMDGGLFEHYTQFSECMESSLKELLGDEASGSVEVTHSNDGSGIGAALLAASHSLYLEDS

[2] = target: T2, ATG13a, BiFC fusion (Arabidopsis) (UniProt Q9SCK0)
T2 sequence: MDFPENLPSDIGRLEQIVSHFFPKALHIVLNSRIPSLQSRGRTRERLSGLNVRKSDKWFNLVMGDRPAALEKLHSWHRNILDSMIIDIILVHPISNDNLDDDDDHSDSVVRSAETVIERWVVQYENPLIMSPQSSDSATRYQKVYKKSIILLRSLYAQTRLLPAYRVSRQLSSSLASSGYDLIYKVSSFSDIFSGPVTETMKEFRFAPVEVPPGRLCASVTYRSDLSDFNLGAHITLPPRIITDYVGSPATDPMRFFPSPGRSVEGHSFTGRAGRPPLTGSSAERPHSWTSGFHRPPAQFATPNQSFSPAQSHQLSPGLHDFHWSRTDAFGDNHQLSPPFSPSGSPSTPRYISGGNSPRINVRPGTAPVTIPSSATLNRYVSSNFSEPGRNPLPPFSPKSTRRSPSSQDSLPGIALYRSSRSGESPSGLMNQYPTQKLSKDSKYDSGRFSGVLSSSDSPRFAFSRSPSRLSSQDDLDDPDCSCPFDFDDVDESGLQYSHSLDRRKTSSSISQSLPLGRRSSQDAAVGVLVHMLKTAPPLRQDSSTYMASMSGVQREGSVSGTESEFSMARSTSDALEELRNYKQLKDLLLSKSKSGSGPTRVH

[3] = target: cytosolic phosphorylating glyceraldehyde-3-phosphate dehydrogenase 1 (GAPC1), BiFC fusion (Arabidopsis) (UniProt P25858)
[4] = target: T3, phosphoglycerate kinase 3 (PGK3), BiFC fusion (Arabidopsis) (UniProt Q9SAJ4)
T3 sequence: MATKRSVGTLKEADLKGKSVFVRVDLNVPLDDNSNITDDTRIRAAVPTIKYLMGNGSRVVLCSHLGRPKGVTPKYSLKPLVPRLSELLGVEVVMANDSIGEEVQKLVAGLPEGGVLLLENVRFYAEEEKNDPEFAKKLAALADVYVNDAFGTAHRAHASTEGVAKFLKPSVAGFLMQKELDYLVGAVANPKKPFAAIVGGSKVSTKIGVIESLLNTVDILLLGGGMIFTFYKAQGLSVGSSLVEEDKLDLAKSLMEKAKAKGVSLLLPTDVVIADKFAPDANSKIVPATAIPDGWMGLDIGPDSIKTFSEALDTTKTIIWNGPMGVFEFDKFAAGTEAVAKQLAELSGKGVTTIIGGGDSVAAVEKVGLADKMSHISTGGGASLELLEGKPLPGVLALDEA

[5] = target: cytosolic triose phosphate isomerase (CyTPI), BiFC fusion (Arabidopsis) (UniProt P48491)

binding [1]: no binding | binding [2]: no binding | binding [3]: no binding | binding [4]: no binding | binding [5]: no binding
Substance: Hexokinase 1 (HXK1), BiFC fusion (from UniProt Q42525 1-496) (enzyme)
